Assay results taken from patent US20150203575A1.
No constants are given. Whether binding was seen depends on the method and setting. Some results given as binding are weak or reduced against the parent protein; the word gives no strength. Tags and fused reporters may be left off the sequences shown.

Protein sequences, listed by entry. Tags and fused reporters are not part of them. Lines headed by an entry give the natural chain unless they say otherwise; changes in a name come on top.
UniProt Q2YFS3: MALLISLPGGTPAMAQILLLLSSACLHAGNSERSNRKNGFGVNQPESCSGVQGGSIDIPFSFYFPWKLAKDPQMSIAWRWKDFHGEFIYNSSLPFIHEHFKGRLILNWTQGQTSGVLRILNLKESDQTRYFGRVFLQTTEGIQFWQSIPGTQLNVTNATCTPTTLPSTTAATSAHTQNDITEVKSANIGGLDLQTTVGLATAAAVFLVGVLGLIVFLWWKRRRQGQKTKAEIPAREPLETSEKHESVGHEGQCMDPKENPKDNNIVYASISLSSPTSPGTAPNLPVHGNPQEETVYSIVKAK
UniProt Q9UKJ1: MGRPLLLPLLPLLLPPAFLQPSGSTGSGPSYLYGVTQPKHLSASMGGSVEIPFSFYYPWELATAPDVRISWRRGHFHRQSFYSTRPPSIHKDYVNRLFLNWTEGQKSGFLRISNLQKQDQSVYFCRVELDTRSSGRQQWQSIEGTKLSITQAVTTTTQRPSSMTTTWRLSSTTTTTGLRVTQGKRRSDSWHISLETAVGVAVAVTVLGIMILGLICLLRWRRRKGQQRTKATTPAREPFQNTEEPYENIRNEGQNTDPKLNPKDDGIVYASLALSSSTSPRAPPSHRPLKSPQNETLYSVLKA

How the values were obtained:
[1] = target: mouse PILRα expressed on 293T cells (mouse) (UniProt Q2YFS3); assay: FACS on 293T transfectants (FIG. 5B)
[2] = target: human PILRα expressed on 293T cells (human) (UniProt Q9UKJ1); assay: FACS on 293T transfectants (FIG. 5B)
[3] = target: mouse PILRα expressed on 293T cells (mouse) (UniProt Q2YFS3); assay: flow cytometry, transfected 293T cells, PILRα-positive cells gated
[4] = target: human PILRα expressed on 293T cells (human) (UniProt Q9UKJ1); assay: as above

- binding [1]: binds
- binding [2]: binds
- binding [3]: binds
- binding [4]: binds
B1: mCD99-Fc (Fc fusion, mouse, UniProt Q8VCN6 29-137, looked up, not shown: a dimerising Fc or GST)
chain: DDFNLGDALEDPNMKPTPKAPTPKKPSGGFDLEDALPGGGGGGAGEKPGNRPQPDPKPPRPHGDSGGISDSDLADAAGQGGGGAGRRGSGDEGGHGGAGGAEPEGTPQG
modifications: three O-glycans NeuAc1-2Hex1HexNAc1
